The whole screen tested about 320,000 compounds, of which about 22,000 (6.9%) were called active. Inconclusive means that the source gave no clear call. Such entries were picked first, then a sample of the others. Calls come from the whole dose curve; as a rule, active = well fitted inhibition curve with a large enough effect; inconclusive = small, poorly fitted or top-dose-only effect, or another doubt; inactive = no such curve, though single readings can be large or run the other way. Potencies beside an inconclusive call are fits to weak or partial responses and may not hold up.
Assay: Primary qHTS for delayed death inhibitors of the malarial parasite plastid, 96 hour incubation
Conditions: P. falciparum luciferase reporter growth; series mostly up to 28.7 µM; activity change, negative = inhibition: at the top concentration
How it was run: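 Parasite growth measured via integrated firefly luciferase reporter in P. falciparum. Infected erythrocytes at 2% hematocrit, 0.05% parasitemia final were treated 96 hours at 37 C under 5% CO2, and luminescence was read.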
% is set by controls: 0 for no effect and ±100 for the full control effect; potency is the fitted concentration of half-maximal effect.

| SMILES | Potency | activity change, negative = inhibition |
| --- | --- | --- |
| CCc1ccccc1NC(=O)CN(C)S(=O)(=O)c1ccc2c(c1)c(=O)n(C)c(=O)n2C | inconclusive: 7.38 µM [inhibitor, partial curve, poor fit] |  |
| CCn1cc(CN2CCC(n3nccc3NC(=O)c3ccccc3C)CC2)cn1 | inconclusive: 7.38 µM [inhibitor, partial curve, poor fit] |  |
| COCCCN(C(=S)Nc1ccc(C)cc1Cl)C(C)c1ccncc1 (stereo not drawn) | inconclusive: 18.5 µM [inhibitor, partial curve, poor fit] |  |
| O=C1NC(=O)/C(=C\c2ccccc2OCc2ccccc2)S1 | inconclusive: 18.5 µM [inhibitor, single point] |  |
| CCc1nnc(NC(=O)c2ccc(S(=O)(=O)N3CCCC(C)C3)cc2)o1 (stereo not drawn) | inconclusive: 9.28 µM [inhibitor, partial curve, poor fit] |  |
| Cc1cccc(NC(=O)c2c([N+](=O)[O-])c(C(C)(C)C)nn2C)c1 | inconclusive: 13.1 µM [inhibitor, single point] |  |
| COC(=O)C1(Cc2cc(-c3ccc(OC)cc3OC)no2)CCN(C(=O)OC(C)(C)C)CC1 | inconclusive: 11.7 µM [inhibitor, partial curve, poor fit] |  |
| O=C(CN1C(=O)C(=O)N(Cc2ccco2)C1=O)c1c[nH]c2ccccc12 | inconclusive: 18.5 µM [inhibitor, single point] |  |
| Cc1ccc(C)c(NC(=O)CS(=O)(=O)c2cn(C)c3ccccc23)c1 | inconclusive: 8.28 µM [inhibitor, partial curve, poor fit] |  |
| O=C(CS(=O)(=O)Cc1ccccc1)NCC1CCCO1 (stereo not drawn) | active: 2.94 µM |  |
| COC(=O)c1c(Cl)c2n3ccccc3c(C)c(-c3ccccc3)c-2c1C(=O)OC | active: 10.4 µM |  |
| O=C(CCl)NN1C(=O)NC(c2ccccc2)(c2ccccc2)C1=O | inconclusive: 10.4 µM [inhibitor, single point] |  |
| Cc1cccc(NC(=O)c2ccc(COc3ccc(Cl)cc3Cl)o2)n1 |  | inactive: -27.2% |
| CC(C)Cn1cc(C(=O)NCc2cccs2)c2c3ccccc3n(C)c2c1=O | active: 8.28 µM |  |
| O=C(C1CCCN(S(=O)(=O)c2ccc(F)cc2)C1)N(Cc1cccs1)C1CC1 (stereo not drawn) | inconclusive: 14.7 µM [inhibitor, single point] |  |
| O=C(Nc1ccc(Br)cc1)C1CC(c2c(F)cccc2Cl)=NO1 (stereo not drawn) |  | inactive: 66.7% |
| O=C(Nc1nc(-c2ccccn2)cs1)C1COc2ccccc2O1 (stereo not drawn) | active: 0.37 µM |  |
| CN(C)c1cccc(C(=O)OCC(=O)N(Cc2ccccc2)C2CCS(=O)(=O)C2)c1 (stereo not drawn) | inconclusive: 18.5 µM [inhibitor, single point] |  |
| Cc1ccc(NS(=O)(=O)c2c(C(=O)N3CCCCCC3)c(C)n(C)c2C)cc1C |  | inactive: 19.9% |
| CC(C)(C)c1[nH]nc2c1C(C1C=CCCC1)C(C#N)=C(N)O2 (stereo not drawn) | inconclusive: 9.28 µM [inhibitor, single point] |  |
| Cc1ccc(C(C(=O)NC(C)(C)C)N(C(=O)c2csnn2)c2cccc(F)c2)o1 (stereo not drawn) | inconclusive: 11.7 µM [inhibitor, partial curve, poor fit] |  |
| CCCCOC(=O)Nc1ccc2c(C)cc(=O)oc2c1 |  | inactive: 128% |
| COc1ccc(Cl)cc1/C=N/NC(=O)c1c(-c2ccccc2)noc1C | inconclusive: 18.5 µM [inhibitor, single point] |  |

| SMILES | Potency | activity change, negative = inhibition |
| --- | --- | --- |
| COC(OC)c1ccnc(-c2ccc(OC(=O)c3ccccc3)cc2)n1 |  | inactive: 31.4% |
| O=C(CCCCCCC(=O)NCc1ccccc1)NCc1ccccc1 | inconclusive: 18.5 µM [inhibitor, single point] |  |
| CCOC(=O)c1ccccc1NC(=O)COc1coc(CN2CCc3ccccc32)cc1=O | active: 11.7 µM |  |
| NC(=O)C1(c2ccccc2)CCCN1C(=O)c1ccc(Br)cc1 (stereo not drawn) | inconclusive: 9.28 µM [inhibitor, partial curve, poor fit] |  |
| CC1(C)N=C(N)N=C(N)N1c1ccc(F)cc1F | active: 9.28 µM |  |
| O=C(O)c1cccc(Nc2nc(-c3cc4ccccc4oc3=O)cs2)c1 |  | inactive: 53.8% |
| Cc1cc(C)cc(N(C(=O)C2CCCC2)C2C=CS(=O)(=O)C2)c1 (stereo not drawn) | inconclusive: 11.7 µM [inhibitor, single point] |  |
| Cc1ccc(CNC(=O)CCn2cc(-c3ccc(C)cc3)nc2CCN)cc1 | inconclusive: 18.5 µM [inhibitor, single point] |  |
| N#Cc1cccc(NC(=O)Cn2cnc(S(=O)(=O)N3CCCCC3)c2)c1 |  | inactive: -6.96% |
| NS(=O)(=O)c1cc(C(=O)OCC(=O)N2CCc3ccccc3C2)ccc1Cl | inconclusive: 13.1 µM [inhibitor, single point] |  |
| Cc1[nH]nc2c1C(c1ccoc1)C(C#N)=C(N)O2 (stereo not drawn) | inconclusive: 0.104 µM [inhibitor, partial curve, poor fit] |  |
| COc1nc(-c2ccccc2)ccc1-c1noc(-c2ccc(F)cc2)n1 | inconclusive: 18.5 µM [inhibitor, single point] |  |
| CC1CCN(S(=O)(=O)c2cccc(C(=O)Nc3nncs3)c2)CC1 |  | inactive: 25.8% |
| O=C(O)c1ccc2nc3c(nc2c1)-c1ccccc1C3=O | inconclusive: 18.5 µM [inhibitor, single point] |  |
| c1ccc2sc(SCc3ccc(-c4nnco4)cc3)nc2c1 | inconclusive: 4.15 µM [inhibitor, single point] |  |
| Cc1cc(C)nc(SC2CC(=O)N(c3ccc(C)c(C)c3)C2=O)n1 (stereo not drawn) | inconclusive: 10.4 µM [inhibitor, single point] |  |
| CC1(C)CC(n2[nH]c(=O)c3c2NC(=O)CSC3c2ccc(F)cc2)CCO1 (stereo not drawn) | inconclusive: 18.5 µM [inhibitor, single point] |  |
| Cc1cccc(S(=O)(=O)N2CN(Cc3ccco3)c3nc4ccccc4nc32)c1 | inconclusive: 10.4 µM [inhibitor, single point] |  |
| CCC1CCC2(CC1)NC(=O)N(CC(=O)Nc1ccc(OC)c(Cl)c1)C2=O (stereo not drawn) |  | inactive: 38.3% |
| O=C(N/C(=C\c1cccc([N+](=O)[O-])c1)C(=O)N1CCOCC1)c1ccco1 | inconclusive: 9.28 µM [inhibitor, partial curve] |  |
| CC(=O)/C(=C/Nc1ccc(Oc2ccccc2)cc1)c1ccccc1 | inconclusive: 11.7 µM [inhibitor, single point] |  |
| CCc1noc(C)c1C(=O)OC(C)C(=O)Nc1ccc(Cl)cn1 (stereo not drawn) | inconclusive: 18.5 µM [inhibitor, single point] |  |
| Cc1ccc(C(C)NC(=O)c2ccco2)cc1 (stereo not drawn) |  | inactive: -7.66% |

An excerpt from above in order of number of heavy atoms, high to low.

| SMILES | Potency | activity change, negative = inhibition |
| --- | --- | --- |
| COC(=O)C1(Cc2cc(-c3ccc(OC)cc3OC)no2)CCN(C(=O)OC(C)(C)C)CC1 | inconclusive: 11.7 µM [inhibitor, partial curve, poor fit] |  |
| O=C(C1CCCN(S(=O)(=O)c2ccc(F)cc2)C1)N(Cc1cccs1)C1CC1 (stereo not drawn) | inconclusive: 14.7 µM [inhibitor, single point] |  |
| CCC1CCC2(CC1)NC(=O)N(CC(=O)Nc1ccc(OC)c(Cl)c1)C2=O (stereo not drawn) |  | inactive: 38.3% |
| O=C(CCCCCCC(=O)NCc1ccccc1)NCc1ccccc1 | inconclusive: 18.5 µM [inhibitor, single point] |  |
| c1ccc2sc(SCc3ccc(-c4nnco4)cc3)nc2c1 | inconclusive: 4.15 µM [inhibitor, single point] |  |
| CCCCOC(=O)Nc1ccc2c(C)cc(=O)oc2c1 |  | inactive: 128% |

Continuation:

| SMILES | Potency | activity change, negative = inhibition |
| --- | --- | --- |
| COc1ccc(C(=O)c2c(C)n(CCN3CCOCC3)c3ccccc23)cc1 | active: 12 µM |  |
| CC(C)c1ccc(S(=O)(=O)c2nnn3c2nc(NCC2CCCO2)c2ccccc23)cc1 (stereo not drawn) | inconclusive: 18.5 µM [inhibitor, single point] |  |
| BrC(=C\c1ccccc1)/C=N/Nc1nc2ccccc2[nH]1 | inconclusive: 18.5 µM [inhibitor, single point] |  |
| CCN(CC)C(=O)/C(=C\c1ccc(Br)cc1)NC(=O)c1ccccc1OC | inconclusive: 14.7 µM [inhibitor, partial curve, poor fit] |  |
| O=C(NCc1ccccc1)C1CCCN(S(=O)(=O)c2cccc3nsnc23)C1 (stereo not drawn) | inconclusive: 13.1 µM [inhibitor, single point] |  |
| COc1ccc(Cc2nnc(SCC(=O)N(c3ccccc3)C(C)C)n(N)c2=O)cc1 | inconclusive: 18.5 µM [inhibitor, single point] |  |
| COC(=O)C(Cc1c[nH]c2ccccc12)NC(=O)c1cccc(S(=O)(=O)N2CCCCC2)c1 (stereo not drawn) | inconclusive: 18.5 µM [inhibitor, single point] |  |
| O=C(CSc1nc2ccc(Nc3nc(N4CCOCC4)nc(N4CCOCC4)n3)cc2s1)Nc1ccccc1F | active: 10.4 µM |  |
| CCn1cc(CNCc2cn[nH]c2-c2cc3ccccc3o2)cn1 | inconclusive: 10.4 µM [inhibitor, single point] |  |
| O=C(NCc1ccc2c(c1)OCO2)c1cc(-c2ccncc2)nc2ccccc12 | inconclusive: 10.4 µM [inhibitor, single point] |  |
| CN1CCN(S(=O)(=O)c2ccc(CNC(=O)c3ccccc3)s2)CC1 | inconclusive: 5.22 µM [inhibitor, partial curve] |  |
| O=C(CSc1nc(-c2ccc(F)cc2)cs1)Nc1ccccn1 |  | inactive: 38.8% |
| COc1ccccc1C(=O)COC(=O)c1cc(S(=O)(=O)N2CCCCC2)ccc1N1CCOCC1 | inconclusive: 4.15 µM [inhibitor, full curve] |  |
| CCn1ncc(S(=O)(=O)NCc2ccco2)c1C | inconclusive: 3.7 µM [inhibitor, single point] |  |
| COc1nc(SC)nc(Cl)c1Cc1ccc(OC(C)C)cc1 | active: 1.04 µM |  |
| CC1CC(C)C[N+](=C2C=C(N3CCCC3)CC(C)(C)C2)C1 (stereo not drawn) | inconclusive: 0.928 µM [inhibitor, full curve, poor fit] |  |
| CCOc1ccc(S(=O)(=O)N2CCCC(C(=O)NCc3ccccc3)C2)cc1 (stereo not drawn) |  | inactive: 36.5% |
| CCOC(=O)c1cnc(-n2cc(C)cn2)nc1NCc1ccc2c(c1)OCO2 | inconclusive: 13.1 µM [inhibitor, single point] |  |
| COCC1CCN(C(=O)c2ccc3oc(CCCc4ccccc4)nc3c2)C1 (stereo not drawn) | active: 3.7 µM |  |
| CN(C(=O)Cn1cc(C(F)(F)F)ccc1=O)c1c(N)n(Cc2ccccc2)c(=O)[nH]c1=O |  | inactive: 19% |
| CCCCc1nc2ccccc2c(=O)n1-c1ccccc1[N+](=O)[O-] |  | inactive: 34.4% |
| Cc1ccc(C(C)(C)C)cc1S(=O)(=O)Nc1ncnc2sccc12 | inconclusive: 0.0657 µM [inhibitor, full curve, poor fit] |  |
